Values from PubChem BioAssay AID686938 (Drosophila RNAi Screening Center, 2013).

Screen: 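Fly genes required for calcium entry once internal stores are emptied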 (primary screen)
System: Drosophila S2R+ cells
Knock-down reagent: long dsRNA against Drosophila genes, about 0.25 µg dsRNA per well, roughly 10,000 cells
Duration: 5 days of knock-down before the calcium assay
Challenge: thapsigargin (SERCA pump blocker) to empty calcium stores; entry signal taken 4 min after adding it
Measured: 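Duplicate raw fluo-4 intensities per well from a plate reader, at rest and four minutes after thapsigargin emptied calcium stores; entry-to-rest ratio filled for only some wells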
Scale: calcium entry signal: higher = stronger calcium signal after store depletion; entry to resting ratio: higher = more calcium entry relative to resting level; resting calcium signal: higher = higher resting calcium signal
Hit rule: 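Called when the plate z-score of the entry-to-rest ratio, mean of duplicates, falls below −3; wells with low overall dye signal (Fmax z below −2) or more than five off-targets excluded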
Calls: active = strongly reduced calcium entry; inactive = no strong reduction
In all, the deposit lists about 23,000 reagents; below is an unselected part of those that have a named target and a result. In the full data, 75 (0.33%) got an active call. 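Raw plate signals without normalisation; calls rest on plate z-scores that were not deposited; ratio present for only 364 wells.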 Entries without a mark were called inactive. Reagents against one gene are numbered here. Names joined by + are all predicted targets of the reagent. Not stated in the record: the dose of the treatment.

no.	gene	reagent	calcium entry signal, replicate 1 (fluorescence units)	calcium entry signal, replicate 2 (fluorescence units)	entry to resting ratio	resting calcium signal, replicate 1 (fluorescence units)	resting calcium signal, replicate 2 (fluorescence units)
1	stnB + stnA	1	3.12e7	2.44e7		1.48e7	1.25e7
2	stnB + stnA	2	5.85e7	5.07e7		2.66e7	2.17e7
3	stnB + stnA	3	5.65e7	4.60e7		2.65e7	1.78e7
4	Pdxk (GeneID 39066)	1	1.59e7	1.76e7		8.68e6	9.42e6
5	CG6398 (GeneID 32761)	1	3.12e7	3.58e7		1.46e7	1.64e7
6	CG33704 (GeneID 3772359)	1	3.15e7	4.82e7		1.44e7	1.91e7
7	t-Grip128 (GeneID 317930)	1	5.01e7	3.77e7		2.31e7	1.66e7
8	shtd (GeneID 32473)	1	2.38e7	2.69e7		1.39e7	1.58e7
9	Cnb (GeneID 38258)	1	4.05e7	3.82e7		1.88e7	1.95e7
10	CG10674 (GeneID 38602)	1	2.65e7	4.34e7		1.38e7	1.97e7
11	CG14111 (GeneID 39497)	1	3.15e7	4.49e7		1.64e7	1.88e7
12	CG6333 (GeneID 39953)	1	4.07e7	4.35e7		1.75e7	1.81e7
13	CG43394 (GeneID 318843)	1	4.18e7	4.18e7		2.04e7	1.96e7
14	CG43394 (GeneID 318843)	2	4.51e7	3.29e7		2.24e7	1.45e7
15	Naglu (GeneID 46386)	1	4.49e7			2.45e7	
16	CG30385 (GeneID 246585)	1	3.33e7	3.46e7		1.48e7	1.44e7
17	br (GeneID 44505)	1	2.58e7	4.16e7		1.39e7	1.70e7
18	br (GeneID 44505)	2	3.88e7	5.32e7	2	1.97e7	2.07e7
19	br (GeneID 44505)	3	5.39e7	3.74e7	1.9	2.77e7	1.90e7
20	br (GeneID 44505)	4	3.66e7	4.37e7	2.1	1.78e7	1.71e7
21	Polr3H (GeneID 39310)	1	2.13e7	1.95e7		1.16e7	9.04e6
22	L (retired record) (GeneID 44831)	1	2.41e7	3.16e7		1.36e7	1.64e7
23	L (retired record) (GeneID 44831)	2	2.43e7	4.00e7		1.38e7	1.76e7
24	Cpr47Ea (GeneID 36188)	1	2.37e7	3.36e7		1.25e7	1.41e7
25	CG34181 (GeneID 5740634)	1	2.39e7	3.31e7		1.25e7	1.42e7
26	CG15570 (GeneID 31366)	1	3.07e7	5.49e7		1.52e7	2.46e7
27	CG14324 (GeneID 42119)	1	3.48e7	5.04e7		1.74e7	5.49e7
28	CG43163 (GeneID 38966)	1	2.67e7	4.54e7		1.33e7	1.93e7
29	CG3679 (GeneID 32591)	1	3.87e7	4.21e7		1.84e7	2.08e7
30	CG8303 (GeneID 36858)	1	4.82e7	6.62e7		2.11e7	3.16e7
31	CG14260 (GeneID 43287)	1	4.11e7	7.22e7		1.93e7	2.72e7
32	Fam92 (GeneID 34654)	1	4.33e7			2.10e7	
33	Ppr-Y (GeneID 3355180)	1	3.31e7	3.94e7		1.53e7	1.77e7
34	dpr13 (GeneID 3885598)	1	3.20e7	3.07e7		1.38e7	1.48e7
35	dpr13 (GeneID 3885598)	2	3.06e7	3.20e7		1.35e7	1.55e7
36	CG9676 (GeneID 32647)	1	3.00e7	3.18e7		1.50e7	1.32e7
37	CG7546 (GeneID 38844)	1	4.29e7	4.47e7		2.44e7	2.02e7
38	CG7546 (GeneID 38844)	2	4.65e7	3.14e7		3.08e7	1.73e7
39	CG7546 (GeneID 38844)	3	2.58e7	3.18e7		1.28e7	1.71e7
40	lncRNA:CR9162 (GeneID 12798573)	1	4.62e7			2.88e7	

A few values from the list.
CG30385 (GeneID 246585), calcium entry signal, replicate 1 (fluorescence units): 3.33e7
Entry of Pdxk (GeneID 39066) in “resting calcium signal, replicate 2 (fluorescence units)”: 9.42e6
For “calcium entry signal, replicate 2 (fluorescence units)”, Cpr47Ea (GeneID 36188) shows 3.36e7
Under “resting calcium signal, replicate 1 (fluorescence units)”, CG43163 (GeneID 38966) has 1.33e7
